This is one part of the list.
Key:
Test in all cases: log2 fold change, soluble protein after heating vs DMSO (PISA); higher = thermal stabilisation; K562 cells, 10 uM, 30 min; active = over 0.2 and 3.5 SD of the protein, either way, in both replicates (recomputed)
[1] = compound: CC1=C(C=C(C=C1)NC(=O)C2=CC(=CC=C2)C(C)(C)C#N)NC3=CC4=C(C=C3)N=CN(C4=O)C
Outline: (§1)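 K562 cells at 2×10^6 cells/mL were treated with 10 μM compound for 30 min. Aliquots were heated for 3 min across 48°C-58°C, pooled, and extracted in PBS with 0.5% NP-40 at 4°C; soluble protein was the supernatant after 21,000xg for 90 min. Soluble protein was quantified by TMTpro 16plex LC-MS/MS with channel sums equalised, and reported as log2 fold change in thermal stability against DMSO controls, with values from duplicates.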

By UniProt entry, the sequences of proteins in these tests, tags left out. Where a name states a change or a piece, a line headed by the entry shows the natural chain unless it says otherwise.
UniProt Q96EB6: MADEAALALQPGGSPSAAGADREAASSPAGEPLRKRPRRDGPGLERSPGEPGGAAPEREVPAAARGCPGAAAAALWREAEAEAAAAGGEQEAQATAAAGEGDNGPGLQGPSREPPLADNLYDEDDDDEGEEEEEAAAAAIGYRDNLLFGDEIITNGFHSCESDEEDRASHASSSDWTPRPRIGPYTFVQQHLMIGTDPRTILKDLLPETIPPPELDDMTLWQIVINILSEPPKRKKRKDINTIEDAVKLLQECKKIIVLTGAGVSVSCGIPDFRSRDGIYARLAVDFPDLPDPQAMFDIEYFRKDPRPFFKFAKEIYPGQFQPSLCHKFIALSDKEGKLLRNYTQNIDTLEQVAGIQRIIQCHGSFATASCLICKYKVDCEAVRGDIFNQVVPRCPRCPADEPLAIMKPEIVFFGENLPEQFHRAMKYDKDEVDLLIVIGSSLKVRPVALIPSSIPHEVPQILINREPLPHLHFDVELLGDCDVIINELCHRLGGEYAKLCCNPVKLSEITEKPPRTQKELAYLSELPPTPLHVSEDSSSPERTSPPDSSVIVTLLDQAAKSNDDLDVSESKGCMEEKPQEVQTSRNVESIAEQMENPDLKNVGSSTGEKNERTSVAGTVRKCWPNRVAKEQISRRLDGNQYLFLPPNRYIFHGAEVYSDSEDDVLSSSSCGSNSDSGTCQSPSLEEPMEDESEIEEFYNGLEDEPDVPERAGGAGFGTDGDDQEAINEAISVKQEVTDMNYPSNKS
UniProt Q15019: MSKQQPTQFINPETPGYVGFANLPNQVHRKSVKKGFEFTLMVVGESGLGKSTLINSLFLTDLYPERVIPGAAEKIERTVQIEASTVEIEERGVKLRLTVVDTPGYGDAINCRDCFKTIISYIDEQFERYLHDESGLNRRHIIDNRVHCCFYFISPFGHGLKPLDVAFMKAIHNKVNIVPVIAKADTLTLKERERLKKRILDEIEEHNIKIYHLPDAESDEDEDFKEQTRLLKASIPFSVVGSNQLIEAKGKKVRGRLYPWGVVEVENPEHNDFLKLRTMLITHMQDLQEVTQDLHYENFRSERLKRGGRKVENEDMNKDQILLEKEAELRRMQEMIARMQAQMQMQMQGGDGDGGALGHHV
UniProt Q7L8J4: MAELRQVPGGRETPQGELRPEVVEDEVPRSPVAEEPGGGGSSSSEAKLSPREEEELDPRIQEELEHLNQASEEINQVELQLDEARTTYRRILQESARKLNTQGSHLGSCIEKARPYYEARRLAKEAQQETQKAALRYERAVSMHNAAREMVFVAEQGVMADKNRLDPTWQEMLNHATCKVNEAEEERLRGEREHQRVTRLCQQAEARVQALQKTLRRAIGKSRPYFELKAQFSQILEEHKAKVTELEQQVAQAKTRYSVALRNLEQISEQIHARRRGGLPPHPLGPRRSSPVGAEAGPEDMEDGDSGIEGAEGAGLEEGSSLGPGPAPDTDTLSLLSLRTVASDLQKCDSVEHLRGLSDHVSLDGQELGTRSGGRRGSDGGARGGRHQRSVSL
UniProt P60468, whole entry, looked up: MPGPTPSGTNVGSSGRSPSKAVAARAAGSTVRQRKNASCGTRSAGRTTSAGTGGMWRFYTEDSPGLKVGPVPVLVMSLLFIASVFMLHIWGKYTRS
UniProt Q02383: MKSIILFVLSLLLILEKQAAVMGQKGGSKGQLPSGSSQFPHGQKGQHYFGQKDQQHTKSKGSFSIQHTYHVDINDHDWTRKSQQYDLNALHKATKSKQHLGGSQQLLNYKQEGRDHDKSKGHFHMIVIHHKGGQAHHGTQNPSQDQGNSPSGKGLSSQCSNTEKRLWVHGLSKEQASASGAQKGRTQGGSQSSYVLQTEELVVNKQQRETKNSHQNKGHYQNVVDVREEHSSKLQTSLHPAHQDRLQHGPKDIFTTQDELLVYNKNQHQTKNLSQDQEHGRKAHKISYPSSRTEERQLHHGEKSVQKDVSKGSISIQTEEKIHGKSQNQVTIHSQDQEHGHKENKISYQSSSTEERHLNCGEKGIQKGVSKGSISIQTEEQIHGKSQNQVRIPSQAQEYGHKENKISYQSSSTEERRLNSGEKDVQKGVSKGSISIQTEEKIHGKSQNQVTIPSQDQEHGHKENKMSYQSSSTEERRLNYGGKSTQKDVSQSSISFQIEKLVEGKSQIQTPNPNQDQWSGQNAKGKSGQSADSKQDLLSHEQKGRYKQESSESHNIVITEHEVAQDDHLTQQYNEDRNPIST
UniProt A1X283: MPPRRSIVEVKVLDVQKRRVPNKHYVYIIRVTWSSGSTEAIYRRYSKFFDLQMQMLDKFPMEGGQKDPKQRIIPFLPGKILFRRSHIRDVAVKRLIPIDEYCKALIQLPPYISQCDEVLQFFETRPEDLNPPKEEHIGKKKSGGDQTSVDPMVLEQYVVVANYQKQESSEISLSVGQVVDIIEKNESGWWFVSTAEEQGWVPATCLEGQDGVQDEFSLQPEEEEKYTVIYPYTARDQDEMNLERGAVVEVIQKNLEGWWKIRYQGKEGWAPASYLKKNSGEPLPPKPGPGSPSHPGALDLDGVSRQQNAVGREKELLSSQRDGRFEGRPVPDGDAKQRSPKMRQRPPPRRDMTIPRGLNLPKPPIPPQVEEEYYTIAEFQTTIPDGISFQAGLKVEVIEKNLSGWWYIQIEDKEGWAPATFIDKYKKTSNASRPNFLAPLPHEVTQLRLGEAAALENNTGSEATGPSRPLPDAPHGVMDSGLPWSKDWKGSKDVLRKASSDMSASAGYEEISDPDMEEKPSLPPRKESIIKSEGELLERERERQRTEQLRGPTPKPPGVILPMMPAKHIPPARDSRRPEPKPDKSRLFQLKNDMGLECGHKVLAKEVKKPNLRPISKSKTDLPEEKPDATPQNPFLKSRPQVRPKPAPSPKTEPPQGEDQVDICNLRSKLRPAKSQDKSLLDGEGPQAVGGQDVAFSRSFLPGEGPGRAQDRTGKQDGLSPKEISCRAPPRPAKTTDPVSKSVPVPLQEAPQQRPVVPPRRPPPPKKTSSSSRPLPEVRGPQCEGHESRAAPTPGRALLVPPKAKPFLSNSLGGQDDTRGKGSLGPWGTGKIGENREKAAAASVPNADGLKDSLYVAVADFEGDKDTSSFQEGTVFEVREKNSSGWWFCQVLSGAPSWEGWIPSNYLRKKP
UniProt P49908, whole entry, looked up: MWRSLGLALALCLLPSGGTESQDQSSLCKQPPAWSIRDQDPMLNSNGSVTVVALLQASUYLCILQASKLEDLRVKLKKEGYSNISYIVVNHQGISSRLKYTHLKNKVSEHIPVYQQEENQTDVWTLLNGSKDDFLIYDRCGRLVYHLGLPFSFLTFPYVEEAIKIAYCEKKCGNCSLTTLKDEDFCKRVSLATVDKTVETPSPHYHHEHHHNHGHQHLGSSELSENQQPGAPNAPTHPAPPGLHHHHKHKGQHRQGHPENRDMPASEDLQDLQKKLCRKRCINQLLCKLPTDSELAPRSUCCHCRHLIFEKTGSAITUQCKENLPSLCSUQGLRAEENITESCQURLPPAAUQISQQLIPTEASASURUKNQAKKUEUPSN
UniProt Q13796: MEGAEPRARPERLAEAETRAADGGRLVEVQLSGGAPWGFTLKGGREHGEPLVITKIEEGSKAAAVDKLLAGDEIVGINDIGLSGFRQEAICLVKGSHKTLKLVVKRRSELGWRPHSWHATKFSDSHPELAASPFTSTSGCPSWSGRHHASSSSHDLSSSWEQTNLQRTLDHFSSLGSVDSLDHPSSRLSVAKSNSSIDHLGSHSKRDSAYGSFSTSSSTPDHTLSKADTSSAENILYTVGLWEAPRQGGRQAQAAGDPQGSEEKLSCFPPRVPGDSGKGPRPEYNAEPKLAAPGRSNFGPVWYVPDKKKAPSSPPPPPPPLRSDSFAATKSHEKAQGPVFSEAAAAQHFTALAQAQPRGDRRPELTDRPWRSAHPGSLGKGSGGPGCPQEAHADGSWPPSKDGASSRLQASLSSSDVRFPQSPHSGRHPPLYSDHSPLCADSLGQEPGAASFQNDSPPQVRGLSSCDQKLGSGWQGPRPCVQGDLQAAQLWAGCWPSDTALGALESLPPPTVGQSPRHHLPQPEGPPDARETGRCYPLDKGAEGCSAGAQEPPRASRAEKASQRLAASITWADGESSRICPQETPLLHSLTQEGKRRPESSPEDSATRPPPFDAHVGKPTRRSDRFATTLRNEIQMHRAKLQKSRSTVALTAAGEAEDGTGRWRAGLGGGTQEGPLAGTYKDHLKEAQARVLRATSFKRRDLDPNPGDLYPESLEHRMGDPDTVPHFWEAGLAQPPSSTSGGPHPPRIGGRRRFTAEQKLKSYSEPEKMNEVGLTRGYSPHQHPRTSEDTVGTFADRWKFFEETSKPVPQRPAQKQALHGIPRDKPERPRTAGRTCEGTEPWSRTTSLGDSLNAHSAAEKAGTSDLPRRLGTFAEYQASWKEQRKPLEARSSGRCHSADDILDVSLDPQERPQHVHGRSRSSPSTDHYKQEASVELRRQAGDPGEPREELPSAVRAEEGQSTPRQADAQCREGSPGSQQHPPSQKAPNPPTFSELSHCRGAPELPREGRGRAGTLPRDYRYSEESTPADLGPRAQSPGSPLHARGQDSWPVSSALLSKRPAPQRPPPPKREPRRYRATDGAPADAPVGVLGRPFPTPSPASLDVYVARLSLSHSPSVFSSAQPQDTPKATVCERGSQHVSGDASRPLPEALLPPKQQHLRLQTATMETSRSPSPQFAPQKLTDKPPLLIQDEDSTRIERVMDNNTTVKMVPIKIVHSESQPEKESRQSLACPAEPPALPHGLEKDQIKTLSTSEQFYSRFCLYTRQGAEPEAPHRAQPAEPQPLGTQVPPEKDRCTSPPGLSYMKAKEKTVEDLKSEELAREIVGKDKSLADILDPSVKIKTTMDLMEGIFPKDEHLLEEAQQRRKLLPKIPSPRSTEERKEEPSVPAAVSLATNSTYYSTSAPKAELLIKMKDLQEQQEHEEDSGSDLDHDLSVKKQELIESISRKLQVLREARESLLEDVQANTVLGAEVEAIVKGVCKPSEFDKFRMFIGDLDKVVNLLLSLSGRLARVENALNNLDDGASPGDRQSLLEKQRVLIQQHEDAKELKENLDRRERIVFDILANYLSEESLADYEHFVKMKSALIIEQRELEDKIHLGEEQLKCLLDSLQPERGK
UniProt Q15428: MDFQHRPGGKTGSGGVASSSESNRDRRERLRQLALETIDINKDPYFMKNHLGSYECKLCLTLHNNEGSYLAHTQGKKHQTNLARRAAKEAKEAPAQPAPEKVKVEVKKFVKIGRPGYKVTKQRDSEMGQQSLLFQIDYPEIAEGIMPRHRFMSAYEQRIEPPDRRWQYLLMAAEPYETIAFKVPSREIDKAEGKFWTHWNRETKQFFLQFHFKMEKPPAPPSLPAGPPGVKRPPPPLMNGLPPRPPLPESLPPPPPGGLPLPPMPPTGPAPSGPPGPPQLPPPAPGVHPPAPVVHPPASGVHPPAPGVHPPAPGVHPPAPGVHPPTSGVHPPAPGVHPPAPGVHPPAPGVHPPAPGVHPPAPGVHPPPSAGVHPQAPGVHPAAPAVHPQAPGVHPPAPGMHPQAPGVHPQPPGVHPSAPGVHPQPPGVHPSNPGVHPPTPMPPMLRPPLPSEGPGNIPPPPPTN
UniProt Q9NP50: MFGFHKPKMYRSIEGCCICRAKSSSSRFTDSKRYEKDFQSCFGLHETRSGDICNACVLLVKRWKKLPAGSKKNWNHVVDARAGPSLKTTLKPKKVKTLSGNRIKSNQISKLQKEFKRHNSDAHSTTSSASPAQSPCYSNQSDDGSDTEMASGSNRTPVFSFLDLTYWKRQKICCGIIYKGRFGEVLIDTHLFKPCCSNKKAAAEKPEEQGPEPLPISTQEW
UniProt P60059: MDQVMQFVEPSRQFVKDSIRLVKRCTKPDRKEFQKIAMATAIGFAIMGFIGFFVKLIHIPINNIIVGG
UniProt Q8WVK7: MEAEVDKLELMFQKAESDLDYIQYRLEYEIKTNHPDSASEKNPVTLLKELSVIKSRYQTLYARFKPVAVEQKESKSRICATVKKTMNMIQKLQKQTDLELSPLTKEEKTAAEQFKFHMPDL
UniProt Q15464: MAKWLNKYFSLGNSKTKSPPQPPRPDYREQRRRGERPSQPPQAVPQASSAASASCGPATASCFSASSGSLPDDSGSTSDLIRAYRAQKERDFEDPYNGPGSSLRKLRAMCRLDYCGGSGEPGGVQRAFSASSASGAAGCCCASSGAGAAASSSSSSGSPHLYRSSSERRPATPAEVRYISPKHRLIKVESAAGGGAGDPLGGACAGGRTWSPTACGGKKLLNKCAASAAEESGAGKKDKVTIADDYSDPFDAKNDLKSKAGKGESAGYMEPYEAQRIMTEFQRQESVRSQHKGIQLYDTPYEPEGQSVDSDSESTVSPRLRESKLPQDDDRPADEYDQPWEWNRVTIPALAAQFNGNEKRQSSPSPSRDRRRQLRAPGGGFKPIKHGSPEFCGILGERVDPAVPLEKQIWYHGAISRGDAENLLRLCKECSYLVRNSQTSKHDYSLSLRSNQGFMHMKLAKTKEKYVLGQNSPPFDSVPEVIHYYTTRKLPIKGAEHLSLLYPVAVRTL

[2] = compound: CC1=C(C=C(C=C1)NC(=O)C2=CC(=CC=C2)N(C)C)NC(=O)C3=CC=C(C=C3)O
Outline: as §1

[3] = compound: CC1=CC=C(C=C1)SC2=C3C=C(SC3=CN=C2)C(=O)N
Outline: as §1

[4] = compound: CC1=NC(=CC=C1)C2=C(N=C(N2)C(C)(C)C)C3=CC4=NC=CN=C4C=C3
Outline: as §1

[5] = compound: CCCCN(Cc1ccc(C(=O)NO)cc1)C(=O)Nc1ccccc1 [Nexturastat A]
Outline: as §1

[6] = compound: CCCS(=O)(=O)Nc1ccc(F)c(C(=O)c2c[nH]c3ncc(-c4ccc(Cl)cc4)cc23)c1F [vemurafenib]
Outline: as §1

[7] = compound: CCCS(=O)(=O)Nc1ccc(F)c(C(=O)c2c[nH]c3ncc(Cl)cc23)c1F
Outline: as §1

[8] = compound: CCCc1cc(C)[nH]c(=O)c1CNC(=O)c1cc(-c2ccnc(N3CCN(C)CC3)c2)cc2c1cnn2C(C)C
Outline: as §1

[9] = compound: CCN(CC)Cc1ccc2cc(COC(=O)Nc3ccc(C(=O)NO)cc3)ccc2c1 [givinostat]
Outline: as §1

[10] = compound: CCN(CCCOc1ccc2c(Nc3cc(CC(=O)Nc4cccc(F)c4)[nH]n3)ncnc2c1)CCOP(=O)(O)O [barasertib]
Outline: as §1

Measured: log2 fold change

SIKE1 (UniProt Q9BRV8)
inactive: [1] 0.031 | [2] 0.005 | [3] 0.026 | [4] -0.041 | [5] 0.169 | [6] 0.034 | [7] -0.023 | [8] -0.164 | [9] -0.009 | [10] 0.113

SERPINH1 (UniProt P50454)
inactive: [1] 0.004 | [2] -0.032 | [3] 0.011 | [4] -0.02 | [5] 0.011 | [6] 0.014 | [7] 0.012 | [8] 0.027 | [9] 0.007 | [10] 0.007

SIRT1 (UniProt Q96EB6)
inactive: [1] 0.007 | [2] 0.005 | [3] -0.035 | [4] -0.004 | [5] 0.022 | [6] 0.021 | [7] 0.046 | [8] 0.066 | [9] -0.008 | [10] 0.031

SEPTIN4 isoform 4 (UniProt O43236)
inactive: [1] 0.405 | [2] -0.029 | [3] 0.028 | [4] 0.612 | [5] -0.284 | [6] 0.146 | [7] 0.091 | [8] 0.043 | [9] -0.039 | [10] -0.038

SEPTIN2 isoform 2 (UniProt Q15019)
inactive: [1] -0.018 | [2] 0 | [3] -0.003 | [4] 0.012 | [5] -0.026 | [6] -0.031 | [7] -0.031 | [8] -0.032 | [9] -0.006 | [10] -0.012

SH3GL1 (UniProt Q99961)
inactive: [1] 0.022 | [2] -0.077 | [3] 0.06 | [4] 0.021 | [5] 0.141 | [6] 0.1 | [7] 0.1 | [8] 0.037 | [9] 0.024 | [10] 0.084

SFT2D3 (UniProt Q587I9)
inactive: [1] 0.027 | [2] -0.011 | [3] -0.047 | [4] 0.025 | [5] 0.047 | [6] -0.014 | [7] -0.203 | [8] -0.064 | [9] -0.038 | [10] 0.253

SEPTIN11 isoform 2 (UniProt Q9NVA2)
inactive: [1] -0.027 | [2] 0 | [3] 0.007 | [4] 0.015 | [5] -0.01 | [6] -0.019 | [7] 0.021 | [8] 0.025 | [9] -0.015 | [10] -0.009

SH3BP5 (UniProt O60239)
inactive: [1] -0.031 | [2] -0.042 | [3] 0.017 | [4] 0.152 | [5] 0.059 | [6] -0.02 | [7] 0.013 | [8] 0 | [9] -0.002 | [10] 0.02

SH3BP5L (UniProt Q7L8J4)
inactive: [1] 0.009 | [2] 0.119 | [3] 0.07 | [4] 0.057 | [5] 0.06 | [6] 0.023 | [7] 0.051 | [8] -0.004 | [9] 0.025 | [10] 0

SFN (UniProt P31947)
inactive: [1] -0.038 | [2] 0.034 | [3] -0.117 | [4] -0.022 | [5] -0.145 | [6] 0.022 | [7] -0.136 | [8] 0.047 | [9] -0.038 | [10] 0.02

SEC61B (UniProt P60468)
inactive: [1] 0.003 | [2] 0.027 | [3] -0.025 | [4] -0.003 | [5] -0.085 | [6] 0.027 | [7] -0.073 | [8] -0.015 | [9] -0.017 | [10] 0.009

SIAE (UniProt Q9HAT2)
inactive: [1] 0.05 | [2] 0.014 | [3] -0.109 | [4] 0 | [5] 0.105 | [6] -0.104 | [7] -0.236 | [9] -0.028 | [10] -0.021

SEPHS1 (UniProt P49903)
inactive: [1] 0.067 | [2] 0.02 | [3] 0.065 | [4] 0.017 | [5] -0.056 | [6] 0.009 | [7] 0.02 | [8] -0.016 | [9] 0.018 | [10] -0.016

SERPINA12 (UniProt Q8IW75)
inactive: [1] -0.077 | [5] 0.207 | [6] 0.338 | [8] -0.125

SEMG2 (UniProt Q02383)
inactive: [1] -0.038 | [5] -0.062 | [8] -0.097 | [10] 0.015

SGPP1 (UniProt Q9BX95)
inactive: [1] 0.039 | [3] -0.085 | [4] 0.007 | [5] -0.124 | [6] -0.005 | [7] -0.057 | [8] -0.306 | [9] -0.149 | [10] 0.066

SH3PXD2B (UniProt A1X283)
inactive: [1] -0.029 | [5] -0.052 | [6] -0.145 | [8] 0.187 | [10] 0.043
active: [9] -0.548

SELENOP (UniProt P49908)
inactive: [1] -0.018 | [4] 0.032 | [8] -0.144 | [9] 0.026 | [10] 0.1

SGMS1 (UniProt Q86VZ5)
inactive: [1] -0.034 | [2] -0.018 | [3] -0.025 | [4] 0.005 | [5] -0.091 | [6] 0.067 | [7] -0.066 | [8] 0.003 | [9] -0.007 | [10] -0.025

SEPTIN5 (UniProt G3XAH0)
active: [5] -0.255
inactive: [1] -0.002 | [2] -0.046 | [3] 0.04 | [6] 0.058 | [7] 0.023 | [8] -0.009 | [9] 0.014 | [10] 0.002

SERPINB5 (UniProt P36952)
inactive: [1] -0.146 | [2] 0.387 | [6] 0.357 | [8] 0.108 | [10] 0.639

SH3GL3 isoform 3 (UniProt Q99963)
inactive: [1] -0.155 | [2] -0.004 | [3] -0.008 | [6] 0.074 | [7] -0.016 | [8] -0.297

Reprinted at random: 2 entries already listed.
SIAE (UniProt Q9HAT2)
inactive: [1] 0.05 | [2] 0.014 | [3] -0.109 | [4] 0 | [5] 0.105 | [6] -0.104 | [7] -0.236 | [9] -0.028 | [10] -0.021

SIRT1 (UniProt Q96EB6)
inactive: [1] 0.007 | [2] 0.005 | [3] -0.035 | [4] -0.004 | [5] 0.022 | [6] 0.021 | [7] 0.046 | [8] 0.066 | [9] -0.008 | [10] 0.031

Further entries follow:

SFR1 isoform 2 (UniProt Q86XK3)
inactive: [1] 0.031 | [2] 0.017 | [5] 0.175 | [6] 0.252 | [8] -0.07 | [10] -0.026

SHROOM2 (UniProt Q13796)
inactive: [1] -0.104 | [3] 0.011 | [4] -0.206 | [6] -0.078 | [7] -0.179 | [8] -0.207 | [9] 0.238 | [10] 0.071
active: [5] 0.763

SF3A2 (UniProt Q15428)
inactive: [1] 0.022 | [2] -0.094 | [3] -0.029 | [4] 0.014 | [5] 0.058 | [6] -0.023 | [7] 0.04 | [8] -0.072 | [9] -0.009 | [10] 0.016

SINHCAF (UniProt Q9NP50)
inactive: [1] -0.483 | [4] -0.296 | [5] -0.615

SHANK2 isoform 3 (UniProt Q9UPX8)
inactive: [1] 0.256 | [4] 0.018 | [5] 0.441

SIAH2 (UniProt O43255)
inactive: [2] 0.008 | [3] 0.003 | [4] -0.042 | [6] -0.129 | [7] -0.017 | [8] -0.229 | [10] -0.054

SEC61G (UniProt P60059)
inactive: [1] 0.099 | [2] 0.106 | [4] 0.058 | [5] -0.137 | [8] -0.298 | [9] -0.016 | [10] -0.091

SKA2 (UniProt Q8WVK7)
inactive: [2] 0.088

SEPTIN10 isoform 2 (UniProt Q9P0V9)
inactive: [1] -0.028 | [3] 0.074 | [5] 0.019 | [6] -0.032 | [7] 0.012 | [8] -0.039 | [9] -0.074 | [10] 0

SHB (UniProt Q15464)
inactive: [1] -0.058 | [3] 0.104 | [7] -0.053 | [8] 0.096 | [10] 0.029

SHFL (UniProt Q9NUL5)
inactive: [1] 0.003 | [2] -0.02 | [3] 0.03 | [5] 0.151 | [7] 0.041 | [8] -0.015 | [10] -0.045
